Experimental data from US20100098682A1.
No constants are given. Whether binding was seen depends on the method and setting. Binding seen in cells or lysates may run through a third protein. Some results given as binding are weak or reduced against the parent protein; the word gives no strength.

Sequences of proteins named here, by UniProt entry; tags and fusion partners are left off. Residues count along the entry.
UniProt P05067, residues 672-770: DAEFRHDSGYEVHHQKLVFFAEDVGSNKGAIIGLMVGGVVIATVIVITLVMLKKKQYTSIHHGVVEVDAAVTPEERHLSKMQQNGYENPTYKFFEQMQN

Target: C99, COOH-terminal fragment of 99 amino acids of APP (human) (UniProt P05067)
Assay: αFLAG co-immunoprecipitation from co-transfected HeLa cell lysates, western blot

binding: binds
Substance: FLAG-BRI2 (full length BRI2, amino acids 1 to 266, N-terminal FLAG tag) (from UniProt A5A6H8 1-266)
